The other results are listed elsewhere or left out.
Molecular target: OsWRKY34 (Oryza sativa, UniProt Q0JBA9 1-250)
Experiment: protein-binding microarray (RPBM); PBS, 2% BSA, 51.3 ng/ul salmon testes DNA, 50 uM zinc acetate, 200 nM TF, 25 C, 1 h; high values mean tight binding
Settings: protein: recombinant; tags: N-terminal polyhistidine and DsRed monomer fusion (pET32a); label: CyDye5-dUTP incorporated in the synthesized complementary strand; 3' TTTTT single-stranded linker to array surface; dsDNA, one strand shown
In short: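 In PBS with 2% BSA, salmon testes DNA and 50 µM zinc acetate, 200 nM protein was incubated on a custom Agilent array at 25 °C for 1 h and then washed off. The array had been made double-stranded by primer extension with Cy5-dUTP and blocked with 2% BSA. The proteins were transcription factors fused N-terminally to polyhistidine and DsRed, expressed in E. coli BL21-CodonPlus and purified on Ni–NTA. The binding signal is per-feature fluorescence intensity (arbitrary units) from an Axon 4000B scanner.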

Chains of the proteins cited; added tags and fusions are not shown.
UniProt Q0JBA9, entry or part of it: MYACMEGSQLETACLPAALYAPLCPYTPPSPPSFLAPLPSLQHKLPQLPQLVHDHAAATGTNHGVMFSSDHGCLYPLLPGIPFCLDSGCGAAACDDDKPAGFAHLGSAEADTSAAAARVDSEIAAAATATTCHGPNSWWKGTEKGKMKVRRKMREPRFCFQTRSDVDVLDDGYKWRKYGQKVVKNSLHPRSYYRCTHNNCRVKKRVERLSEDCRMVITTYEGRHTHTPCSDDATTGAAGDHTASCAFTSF

Sequence	binding signal
ATTGACTTTTTTAAAAATGTTTGACCATTCGTCTTATTCACGGAGTCACCTAGTGCAG	9010 fluorescence intensity (a.u.)
AATTTGGTCTCTACTTTCTTTTGTCATTGAAATGATGAATCGGAGTCACCTAGTGCAG	8450 fluorescence intensity (a.u.)
TCATTGCTATCATCAGCTAGTGTATTTTTATTGGTTAACACGGAGTCACCTAGTGCAG	9540 fluorescence intensity (a.u.)
TAACTCTTCTTTTAGTCTAAACCGTCATGATTTGGTCCATCGGAGTCACCTAGTGCAG	8540 fluorescence intensity (a.u.)
GTCTATCAATCTGCATTTGACTAGCTTGCAGCTAGCACTTCGGAGTCACCTAGTGCAG	8320 fluorescence intensity (a.u.)
TGACTCGTGTCAACATCTCATTTCACCATTTGTAACAGTTCGGAGTCACCTAGTGCAG	8560 fluorescence intensity (a.u.)
ATCATTCTCCACGTACGCATGCCTCTCTTGCGTGTTATCGCGGAGTCACCTAGTGCAG	8820 fluorescence intensity (a.u.)
GCTTTCTTCATGGTTTGTTTTTGGTAGCTATGGAACCACGCGGAGTCACCTAGTGCAG	11100 fluorescence intensity (a.u.)
ATCTGGAATCCAACGCCTGACCTCGCCGCGCGGCGGCATGCGGAGTCACCTAGTGCAG	8610 fluorescence intensity (a.u.)
CAATGAGAATTACTCATCTCTCTCCCTCTCGTTTCATTCTCGGAGTCACCTAGTGCAG	9480 fluorescence intensity (a.u.)
GCTTATGCATTCTGCTGCACGTTTTGTTCACCAGTGGTTTCGGAGTCACCTAGTGCAG	9410 fluorescence intensity (a.u.)
GATGAACGGTCAAACATGTTAAAAAAGTCAACGACGTTACCGGAGTCACCTAGTGCAG	13200 fluorescence intensity (a.u.)
GGATCTGGGCGTTGACTTGTCAACGACAGATATTTCTTGGCGGAGTCACCTAGTGCAG	8790 fluorescence intensity (a.u.)
ACGTGGTACAATTCTGACTCTTTCTGTAAATAGTAAATGGCGGAGTCACCTAGTGCAG	8550 fluorescence intensity (a.u.)
CGCTTTTCCGAACCCTTTCCATTTTTTCCACCCACACAGCCGGAGTCACCTAGTGCAG	10200 fluorescence intensity (a.u.)
GAGCTTTCTGCTTGTCTCTTCCCATGTCTTCTTGTACTCCCGGAGTCACCTAGTGCAG	8390 fluorescence intensity (a.u.)
GGATCCATGCCCGGGCCTCCACCCTCGTCAGCTCTGTTGACGGAGTCACCTAGTGCAG	8800 fluorescence intensity (a.u.)
ATCCATGTTTACCTCCAATATTTTTCCACATGAATAAAAACGGAGTCACCTAGTGCAG	9660 fluorescence intensity (a.u.)
GGCCGCCACCTCGCTTTCCACCACCCTAGCAATCACCAGACGGAGTCACCTAGTGCAG	8550 fluorescence intensity (a.u.)
TTCCTCCGTCTGCGTGCCGGCTTCTGTCTTCCTCCGCGCGCGGAGTCACCTAGTGCAG	17300 fluorescence intensity (a.u.)
CACATCAAATTTATTTTCTCCCAAAATGAGGCGCGCAACACGGAGTCACCTAGTGCAG	8670 fluorescence intensity (a.u.)

Sequence	binding signal
ACTCCAATTTTTGTCATCTATTGACCTTTGGCCATATTTTCGGAGTCACCTAGTGCAG	11900 fluorescence intensity (a.u.)
TCACCGATATGTGTTTCTTCCTTGTTGAATTGTCTATGTCCGGAGTCACCTAGTGCAG	13900 fluorescence intensity (a.u.)
CCGTATCCTTGCAACGCGGGCGCCGCGCGTTCCACTCTCTCGGAGTCACCTAGTGCAG	9510 fluorescence intensity (a.u.)
ATGGTCAACCGTATTGTATTGTCACGAGCGCAACATATCACGGAGTCACCTAGTGCAG	9020 fluorescence intensity (a.u.)
ACGTCACCCCGCCTTTACTCGCTTTCTCCGTTCTCCCTAGCGGAGTCACCTAGTGCAG	10800 fluorescence intensity (a.u.)
CTTTTCTGGACTCTCATGTCTCATTGCTTTACACCATTGTCGGAGTCACCTAGTGCAG	10900 fluorescence intensity (a.u.)
ATTTTAGGAGCACTGCATCCACAGTGGATCCCCGAATTGTCGGAGTCACCTAGTGCAG	8370 fluorescence intensity (a.u.)
CCCCACCCCGCTCCTGCCTTCTAGGAGGGGCTGTTCCGCGCGGAGTCACCTAGTGCAG	8390 fluorescence intensity (a.u.)
GCCCACATGTCAGCAACTCAAAGTCCGCCGCCATTTTCTTCGGAGTCACCTAGTGCAG	11000 fluorescence intensity (a.u.)
TTGACTATAACCGGTCCACGCCGTGACCGCCACCGGCTGCCGGAGTCACCTAGTGCAG	9630 fluorescence intensity (a.u.)
GTTTTAATCCCTATCATGCAAACATCCTCGGCTAACCATCCGGAGTCACCTAGTGCAG	8970 fluorescence intensity (a.u.)
CCGCTGACTTTTTTATATATAAGTCAAGGTGCTGTTTGGACGGAGTCACCTAGTGCAG	10100 fluorescence intensity (a.u.)
CTTTCTTAATCTAATTTGTGTTTTCTTGACTGTCACGTGCCGGAGTCACCTAGTGCAG	8710 fluorescence intensity (a.u.)
GACTTGGCCACATCGTTCACACACTTCACTCACACGAGAGCGGAGTCACCTAGTGCAG	9130 fluorescence intensity (a.u.)
CTACCGTTTCGCTTTTTCCTCTTATATGCCGGGGCTGTATCGGAGTCACCTAGTGCAG	8660 fluorescence intensity (a.u.)
GTCCTTTCAGTCTGTGTCTCGTCATCGCGGCGGTATAAATCGGAGTCACCTAGTGCAG	8680 fluorescence intensity (a.u.)
ATTATTATCTTGGTCGTACTGTGGAAATGGGTTTGGGAGGCGGAGTCACCTAGTGCAG	10100 fluorescence intensity (a.u.)
CGTAATTGCATCTCTATTTTCATCTCTACTTCATTTCTCTCGGAGTCACCTAGTGCAG	9260 fluorescence intensity (a.u.)
CCCTCCGCCGCGCCGGCCATGCGCTCTTTGCGCATCCTCTCGGAGTCACCTAGTGCAG	9340 fluorescence intensity (a.u.)
ATTCATTTATTTTGTTGTTTCTTATGTGTGCGTTAATGAACGGAGTCACCTAGTGCAG	8570 fluorescence intensity (a.u.)
ATTCCACTCTCCTGCAAGGCAGTCCCATGTGAGTTATCCACGGAGTCACCTAGTGCAG	8580 fluorescence intensity (a.u.)

Sequence	binding signal
GGTCGAGATATCTGGTTTTGTAGTTTAGGGTCATGGTTTACGGAGTCACCTAGTGCAG	11000 fluorescence intensity (a.u.)
CGATTCGAAATCTGCCACGCTTTATTCCCGCCATCTCATTCGGAGTCACCTAGTGCAG	10300 fluorescence intensity (a.u.)
CTCTCGTCTCTCTTCACCTCATCCATATATGCATGTATGTCGGAGTCACCTAGTGCAG	9080 fluorescence intensity (a.u.)
CACACCGACCAGTACTTGTTCTTTACTCAACTTACTCCAACGGAGTCACCTAGTGCAG	10300 fluorescence intensity (a.u.)
TACGTTCATACCAACTTATTTATTTATATCGAACTTATCTCGGAGTCACCTAGTGCAG	8720 fluorescence intensity (a.u.)
GTCGTAGTTAATTTTTGGCATGACGTTGACCATTTATCTACGGAGTCACCTAGTGCAG	8760 fluorescence intensity (a.u.)
ATCATCCTCGCTTTCCGATTATTCTTCATCGCTAAACTCACGGAGTCACCTAGTGCAG	8490 fluorescence intensity (a.u.)
CCGCCGCCGCCACCGCCGCCGCCATGGCCGCCGCCGCCGCCGGAGTCACCTAGTGCAG	9190 fluorescence intensity (a.u.)
CAAGCTGCATGCCCAGCTGCACCTCTCTGTCTCTCCGATCCGGAGTCACCTAGTGCAG	8460 fluorescence intensity (a.u.)
CACAGTACACCCGGCCCCAAGCTTTTGCTTAATTCGCACTCGGAGTCACCTAGTGCAG	8180 fluorescence intensity (a.u.)
TCATCTATTTTTTTTGTAAAACAACTTTTCAACTTCTTATCGGAGTCACCTAGTGCAG	8020 fluorescence intensity (a.u.)
ATGTTGTTTGTTATGATGCTGTTCTTTTGTTGTTGTTTACCGGAGTCACCTAGTGCAG	11700 fluorescence intensity (a.u.)
ACAATGGTTGTCAATAGTGGTCTCTTAACGTCGCTAACTACGGAGTCACCTAGTGCAG	10800 fluorescence intensity (a.u.)
AATGTATGACACCGTTGACTTCTTGACCAACGTTTAACCACGGAGTCACCTAGTGCAG	18700 fluorescence intensity (a.u.)
GTACGAAAGGGGTGGGTACACCATGGTTGGGGAGGTTGAACGGAGTCACCTAGTGCAG	13200 fluorescence intensity (a.u.)
ATTTTACATGATTTATCTTTTTTATATTTTTGCTATTAATCGGAGTCACCTAGTGCAG	8110 fluorescence intensity (a.u.)
TTGTCGTCGTGGTCTTCTCTTAGATTATTATTATTATTATCGGAGTCACCTAGTGCAG	10400 fluorescence intensity (a.u.)
GGGTTTGCTCGCTTTTTTTATGTTGCGGCGATGGCGACGGCGGAGTCACCTAGTGCAG	8610 fluorescence intensity (a.u.)
AAAGAATTAAAGGTTAGTGGGTCTTTTGGGGTGGAGTGGACGGAGTCACCTAGTGCAG	10300 fluorescence intensity (a.u.)
CATTGCAGCTTATTACACACGCCTCTTGGTTTCTTTTTCCCGGAGTCACCTAGTGCAG	8480 fluorescence intensity (a.u.)
ACCGCCTCGCTTTTCCTTCTCCACCATTTCTCCTTGTCTCCGGAGTCACCTAGTGCAG	9130 fluorescence intensity (a.u.)

Sequence	binding signal
GCGTGTTTTTCTACCCGATCGACCTTCTGATTTTGGCTATCGGAGTCACCTAGTGCAG	11100 fluorescence intensity (a.u.)
CCTATTGCTGTGTTTTCTCATCCCCACATTTCAAAGGAGCCGGAGTCACCTAGTGCAG	9690 fluorescence intensity (a.u.)
CCGCTCCGTTTTGTGTCGTTTTGTGTATTTTCTCCACTCACGGAGTCACCTAGTGCAG	17400 fluorescence intensity (a.u.)
AATACCCCGTTCTTCCGGTTAATTGCGTTCGAACCCTGTTCGGAGTCACCTAGTGCAG	9390 fluorescence intensity (a.u.)
TAATTAGCTTTATTGTGTGGTGTGATGTTAAGTGTTTCTACGGAGTCACCTAGTGCAG	8630 fluorescence intensity (a.u.)
ACTTCTATTTATCTTCAAACTTTAGTCATCTCTTTTTTTCCGGAGTCACCTAGTGCAG	9070 fluorescence intensity (a.u.)
TAGTCTCTAGTCTCTACTGCTACTAGTACTGGTAATCTGCCGGAGTCACCTAGTGCAG	8100 fluorescence intensity (a.u.)
CATAGAGCACTCTGGTTAACACGTTTCTCACGGCGCGCGCCGGAGTCACCTAGTGCAG	9450 fluorescence intensity (a.u.)
TGTTTTTATCTCAGCTGTTGTTGTGGAAGAGCACATTTCGCGGAGTCACCTAGTGCAG	8520 fluorescence intensity (a.u.)
CCACGGTTTCCCAGACTTGAAATTTGACCAAACCCAACCCCGGAGTCACCTAGTGCAG	9690 fluorescence intensity (a.u.)
CCAGACGCACGAATGCATGACTCAGGTCCAGTTCTTTTCTCGGAGTCACCTAGTGCAG	9850 fluorescence intensity (a.u.)
TCAACCTCTACCACCGCACATCTCACATACTCATCTTTTTCGGAGTCACCTAGTGCAG	9820 fluorescence intensity (a.u.)
GCCGCCTCCGCCTCCGGCCTCGTTCCTCACCGGCGGCGGCCGGAGTCACCTAGTGCAG	8300 fluorescence intensity (a.u.)
TGGTGTGGTTTAGTTAACCTGCCCCGAAATCCTTCTCTCTCGGAGTCACCTAGTGCAG	9520 fluorescence intensity (a.u.)
GTGATGTCTCTTCAACCATACTCCCAGTCCCATAAAAAAACGGAGTCACCTAGTGCAG	8560 fluorescence intensity (a.u.)
TTTGTCCCGAGTCAAACATTAGTATCTTTGACTATCAATTCGGAGTCACCTAGTGCAG	15400 fluorescence intensity (a.u.)
GTTTTGCAATCCTCTGTTTTGTACCTGCATTCCTATCGAACGGAGTCACCTAGTGCAG	10000 fluorescence intensity (a.u.)
ACAGTTTGTACTTGAGTTTGTATAGTTTGGCCTCCTTTTTCGGAGTCACCTAGTGCAG	12200 fluorescence intensity (a.u.)
CTCTCCCATGCCGTCTCAGCTCAGCTGCCTTTAGCTACTACGGAGTCACCTAGTGCAG	12900 fluorescence intensity (a.u.)
AATCACTACTATATTTTTCTTGTGTTTTACTGATCTCTATCGGAGTCACCTAGTGCAG	8360 fluorescence intensity (a.u.)
TCCTTGTATGAATCCATTGCCTTGCTTCTGCTTGCCCATTCGGAGTCACCTAGTGCAG	8530 fluorescence intensity (a.u.)

Rewritten as labelled records: entries from further up
GTCTATCAATCTGCATTTGACTAGCTTGCAGCTAGCACTTCGGAGTCACCTAGTGCAG
  binding signal = 8320 fluorescence intensity (a.u.)
TGACTCGTGTCAACATCTCATTTCACCATTTGTAACAGTTCGGAGTCACCTAGTGCAG
  binding signal = 8560 fluorescence intensity (a.u.)
ATCATTCTCCACGTACGCATGCCTCTCTTGCGTGTTATCGCGGAGTCACCTAGTGCAG
  binding signal = 8820 fluorescence intensity (a.u.)
GCTTTCTTCATGGTTTGTTTTTGGTAGCTATGGAACCACGCGGAGTCACCTAGTGCAG
  binding signal = 11100 fluorescence intensity (a.u.)
